PubChem BioAssay AID1053208, Peter MacCallum Cancer Centre – 2014
Here is one part, drawn at random, of about 17,000 deposited reagents. Of all reagents, 788 (4.7%) were called active. 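Calls rest on z-score classes alone; an extra cut-off of viability at most 70% of control was not applied to them.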 The numbers tell different reagents against one gene apart. No sequences are given here.

Screen: 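Genes whose silencing cuts survival of bone tumour cells only with doxorubicin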 (primary screen)
System: mouse osteosarcoma cells, early-passage culture from an engineered mouse model of fibroblastic bone tumour
Knock-down reagent: siRNA pool against mouse genes, 40 nM
Duration: about 120 h (48 h before drug, then 72 h with drug)
Challenge: doxorubicin 100 nM for 72 h, roughly 30-40% inhibitory dose
Read-out: 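Luminescent ATP signal taken as viability with or without 100 nM doxorubicin for 72 h; mean of two wells set against non-targeting siRNA and turned into robust z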
Scale: viability z-score with doxorubicin and doxorubicin viability vs non-targeting: higher = more viable cells under doxorubicin; viability z-score without drug: higher = more viable cells with knock-down alone; z-score of drug to no-drug ratio: higher = less drug sensitisation by knock-down
Rule for the call: 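a pool counts as active when its viability z-score with doxorubicin is -2 or below and its z-score without drug lies between -2 and 2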

| gene symbol | reagent no. | combined z-score class | viability z-score with doxorubicin | viability z-score without drug | z-score of drug to no-drug ratio | doxorubicin viability vs non-targeting | activity call |
| --- | --- | --- | --- | --- | --- | --- | --- |
| Procr (protein C receptor, endothelial) | 1 | no change with or without drug | 0.67 | -0.51 | 1.24 | 1 | inactive |
| Scn8a (sodium channel, voltage-gated, type VIII, alpha) | 1 | no change with or without drug | 0 | 0.51 | -0.22 | 0.94 | inactive |
| Slc46a1 | 1 | no change with or without drug | -0.79 | -0.34 | -0.45 | 0.87 | inactive |
| Lrrc9 (leucine rich repeat containing 9) | 1 | no change with or without drug | -1.01 | 0.17 | -1.01 | 0.85 | inactive |
| Rhox3a (reproductive homeobox 3A) | 1 | no change with or without drug | 0 | -0.17 | 0.22 | 0.94 | inactive |
| Coq4 (coenzyme Q4) | 1 | no change with or without drug | -0.67 | 0.34 | -0.79 | 0.88 | inactive |
| Mtmr7 (myotubularin related protein 7) | 1 | no change with or without drug | -0.9 | -0.84 | -0.22 | 0.86 | inactive |
| Or52z14 (olfactory receptor family 52 subfamily Z member 14) | 1 | no change with or without drug | -0.9 | -0.17 | -0.79 | 0.86 | inactive |
| Tmem229b (transmembrane protein 229B) | 1 | no change with or without drug | -0.79 | -0.17 | -0.56 | 0.87 | inactive |
| Minpp1 (multiple inositol polyphosphate histidine phosphatase 1) | 1 | no change with or without drug | -1.46 | -1.18 | -0.67 | 0.81 | inactive |
| Mrpl27 (mitochondrial ribosomal protein L27) | 1 | high cell count with doxorubicin only | 2.59 | -0.51 | 3.26 | 1.17 | inactive |
| Slc9c1 | 1 | no change with or without drug | 1.12 | -0.51 | 1.69 | 1.04 | inactive |
| En1 (engrailed 1) | 1 | no change with or without drug | 0.9 | 1.52 | 0 | 1.02 | inactive |
| Krtap19-2 (keratin associated protein 19-2) | 1 | no change with or without drug | 1.35 | 0 | 1.57 | 1.06 | inactive |
| Cks2 (CDC28 protein kinase regulatory subunit 2) | 1 | no change with or without drug | 0.11 | 0.51 | -0.11 | 0.95 | inactive |
| Kcnma1 | 1 | no change with or without drug | -0.45 | -0.17 | -0.22 | 0.9 | inactive |
| Abcf1 (ATP-binding cassette, sub-family F member 1) | 1 | no change with or without drug | 0.45 | -0.17 | 0.67 | 0.98 | inactive |
| Masp1 (MBL associated serine protease 1) | 1 | no change with or without drug | 0 | -0.17 | 0.22 | 0.94 | inactive |
| Orc5 (origin recognition complex, subunit 5) | 1 | no change with or without drug | 1.12 | 1.18 | 0.45 | 1.04 | inactive |
| Pparg (peroxisome proliferator activated receptor gamma) | 1 | no change with or without drug | 1.57 | -0.51 | 2.14 | 1.08 | inactive |
| Heatr5b (HEAT repeat containing 5B) | 1 | no change with or without drug | 0.22 | -0.17 | 0.45 | 0.96 | inactive |
| Zfp296 (zinc finger protein 296) | 1 | no change with or without drug | 0 | 0.51 | -0.22 | 0.94 | inactive |
| Ciao1 (cytosolic iron-sulfur protein assembly 1) | 1 | no change with or without drug | 0.45 | 0.51 | 0.22 | 0.98 | inactive |

Next part, starting with the last 7 of the part before.
| gene symbol | reagent no. | combined z-score class | viability z-score with doxorubicin | viability z-score without drug | z-score of drug to no-drug ratio | doxorubicin viability vs non-targeting | activity call |
| --- | --- | --- | --- | --- | --- | --- | --- |
| Abcf1 (ATP-binding cassette, sub-family F member 1) | 1 | no change with or without drug | 0.45 | -0.17 | 0.67 | 0.98 | inactive |
| Masp1 (MBL associated serine protease 1) | 1 | no change with or without drug | 0 | -0.17 | 0.22 | 0.94 | inactive |
| Orc5 (origin recognition complex, subunit 5) | 1 | no change with or without drug | 1.12 | 1.18 | 0.45 | 1.04 | inactive |
| Pparg (peroxisome proliferator activated receptor gamma) | 1 | no change with or without drug | 1.57 | -0.51 | 2.14 | 1.08 | inactive |
| Heatr5b (HEAT repeat containing 5B) | 1 | no change with or without drug | 0.22 | -0.17 | 0.45 | 0.96 | inactive |
| Zfp296 (zinc finger protein 296) | 1 | no change with or without drug | 0 | 0.51 | -0.22 | 0.94 | inactive |
| Ciao1 (cytosolic iron-sulfur protein assembly 1) | 1 | no change with or without drug | 0.45 | 0.51 | 0.22 | 0.98 | inactive |
| Prlr (prolactin receptor) | 1 | no change with or without drug | 1.01 | 0.51 | 0.79 | 1.03 | inactive |
| Prlr (prolactin receptor) | 2 | no change with or without drug | 0.45 | -0.17 | 0.67 | 0.98 | inactive |
| Wdr54 (WD repeat domain 54) | 1 | no change with or without drug | 1.8 | 1.18 | 1.12 | 1.1 | inactive |
| Adra1d (adrenergic receptor, alpha 1d) | 1 | low cell count without drug only | -1.12 | -3.88 | 2.14 | 0.84 | inactive |
| Gm9927 (predicted gene 9927) | 1 | no change with or without drug | -1.12 | -1.18 | -0.34 | 0.84 | inactive |
| Ca14 (carbonic anhydrase 14) | 1 | no change with or without drug | -1.35 | 0.51 | -1.57 | 0.82 | inactive |
| Etfbkmt | 1 | no change with or without drug | 1.01 | 1.85 | -0.11 | 1.03 | inactive |
| Liat1 (ligand of ATE1) | 1 | no change with or without drug | -1.8 | 0.84 | -2.25 | 0.78 | inactive |
| Btf3l4 (basic transcription factor 3-like 4) | 1 | no change with or without drug | 1.35 | 0.67 | 1.01 | 1.06 | inactive |
| Yif1a (Yip1 interacting factor homolog A (S. cerevisiae)) | 1 | low cell count with doxorubicin only | -2.14 | -0.67 | -1.8 | 0.75 | active |
| 1700001G17Rik (RIKEN cDNA 1700001G17 gene) | 1 | low cell count with doxorubicin only | -2.25 | -1.52 | -1.35 | 0.74 | active |
| Ppp4r2 (protein phosphatase 4, regulatory subunit 2) | 1 | high cell count with doxorubicin only | 2.14 | 1.52 | 1.24 | 1.13 | inactive |
| Nt5m (5',3'-nucleotidase, mitochondrial) | 1 | no change with or without drug | -0.45 | 0.17 | -0.45 | 0.9 | inactive |
| Chi3l1 (chitinase 3 like 1) | 1 | no change with or without drug | -1.91 | 0.51 | -2.14 | 0.77 | inactive |
| Opn3 (opsin 3) | 1 | no change with or without drug | 0.56 | -1.18 | 1.57 | 0.99 | inactive |
| Nrl (neural retina leucine zipper gene) | 1 | no change with or without drug | 1.01 | -0.51 | 1.57 | 1.03 | inactive |
| Pbx1 (pre B cell leukemia homeobox 1) | 1 | no change with or without drug | 0.67 | -0.51 | 1.24 | 1 | inactive |
| Retnla (resistin like alpha) | 1 | no change with or without drug | 1.01 | -0.34 | 1.46 | 1.03 | inactive |
| Plac1 (placental specific protein 1) | 1 | no change with or without drug | -1.57 | -0.51 | -1.24 | 0.8 | inactive |
| Phactr4 (phosphatase and actin regulator 4) | 1 | low cell count with doxorubicin only | -2.92 | -0.67 | -2.59 | 0.68 | active |
| Sema4b | 1 | no change with or without drug | 0 | -1.18 | 1.01 | 0.94 | inactive |
| Necap2 (NECAP endocytosis associated 2) | 1 | no change with or without drug | -1.69 | -0.51 | -1.35 | 0.79 | inactive |
| Or4k49 (olfactory receptor family 4 subfamily K member 49) | 1 | no change with or without drug | -1.57 | 0.17 | -1.69 | 0.8 | inactive |
| Ap3s2 (adaptor-related protein complex 3, sigma 2 subunit) | 1 | no change with or without drug | 1.35 | 1.35 | 0.56 | 1.06 | inactive |
| Otor (otoraplin) | 1 | no change with or without drug | 0 | 0.17 | 0 | 0.94 | inactive |
| Ms4a4c (membrane-spanning 4-domains, subfamily A, member 4C) | 1 | no change with or without drug | 0.67 | -0.67 | 1.35 | 1 | inactive |
| Slc38a11 | 1 | no change with or without drug | 0 | 0 | 0.11 | 0.94 | inactive |
| Slc16a8 | 1 | low cell count without drug only | -1.12 | -2.19 | 0.45 | 0.84 | inactive |
| Defb10 (defensin beta 10) | 1 | high cell count without drug only | 0.67 | 2.7 | -0.9 | 1 | inactive |
| 3300002I08Rik (RIKEN cDNA 3300002I08 gene) | 1 | no change with or without drug | -1.35 | -0.51 | -1.01 | 0.82 | inactive |
| Zbtb41 (zinc finger and BTB domain containing 41) | 1 | no change with or without drug | -1.35 | -0.17 | -1.24 | 0.82 | inactive |
| Defb5 (defensin beta 5) | 1 | no change with or without drug | -0.22 | -0.84 | 0.45 | 0.92 | inactive |
| Il17b (interleukin 17B) | 1 | no change with or without drug | 0.45 | 0.17 | 0.45 | 0.98 | inactive |
| Or6s1 (olfactory receptor family 6 subfamily S member 1) | 1 | no change with or without drug | 0 | 1.52 | -0.9 | 0.94 | inactive |
| Col6a6 (collagen, type VI, alpha 6) | 1 | no change with or without drug | -0.45 | 1.52 | -1.24 | 0.9 | inactive |
| Cript (cysteine-rich PDZ-binding protein) | 1 | no change with or without drug | 0.67 | -0.17 | 0.9 | 1 | inactive |
| Flt4 (FMS-like tyrosine kinase 4) | 1 | no change with or without drug | -0.45 | 0.51 | -0.67 | 0.9 | inactive |
| Mansc1 (MANSC domain containing 1) | 1 | no change with or without drug | 1.35 | 1.01 | 0.79 | 1.06 | inactive |
| Nr0b1 (nuclear receptor subfamily 0, group B, member 1) | 1 | no change with or without drug | 1.24 | 1.01 | 0.67 | 1.05 | inactive |
| Galnt1 (polypeptide N-acetylgalactosaminyltransferase 1) | 1 | no change with or without drug | 1.46 | 1.85 | 0.34 | 1.07 | inactive |
